Assay results

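Counterscreen z-score for each compound in a recombinant Hck-YEEI:Nef Z-Lyte FRET kinase setup using a p-Tyr peptide, with a 50 min kinase step and 60 min development.
Compounds were tested at a single concentration of 10 µM.
The number is a z-score for the p-Tyr peptide counterscreen; higher values mean a stronger counterscreen signal, and values above 3 mark a compound as likely interfering.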

Common to all entries: measured here: p-Tyr peptide counterscreen.
This is a side read-out of the assay, for part of the compounds, not drawn at random.

O=C1NN(c2ccccc2)C(=O)/C1=C\c1ccc(-c2cc([N+](=O)[O-])ccc2O)o1 read z-score -0.9462.
COc1ccc(-n2c(N)cc(=O)[nH]c2=O)cc1 read z-score -0.1957.
CS(=O)(=O)N(CC(=O)N/N=C/c1ccc(OCC(=O)N2CCOCC2)cc1)c1ccccc1Cl read z-score 2.163.
Cc1ccccc1Nc1ncnc2c1cnn2-c1ccccc1 read z-score 0.1925.
CCN(CC)C(=O)c1ccc2c(c1)C1C(Cl)C(Sc3ccccc3[N+](=O)[O-])CC1C(C(=O)O)N2 (stereo not drawn) read z-score -1.734.
O=C1ON=C(c2ccccc2)/C1=C\c1ccco1 read z-score -0.4661.
COc1cccc(=O)c2c(C)n(CC(=O)c3ccccc3)c(C)c12 read z-score -2.471.
COc1ccc(-c2nnn(CC(=O)NCCc3ccc(OC)c(OC)c3)n2)cc1 read z-score -1.84.
CSc1nc(SCCO)c2sc3nc(-c4ccco4)c4c(c3c2n1)CC(C)(C)OC4 read z-score -0.9432.
CCCCC(=O)N/N=C/c1c(O)n(CCc2ccc(OC)c(OC)c2)c(=O)[nH]c1=O read z-score 2.022.
COc1ccc(C2=CC3=C(Br)C(=O)C(C)(OC(=O)c4ccco4)C(=O)C3=CO2)cc1 (stereo not drawn) read z-score -2.104.
O=C(Nc1nnc(SCc2c(Cl)cccc2Cl)s1)c1ccc2ncsc2c1 read z-score -1.912.
Nc1c(C(=O)NCCc2ccccc2)c2nc3ccccc3nc2n1CCN1CCOCC1 read z-score 66.8.
COc1ccc(-c2cc(=O)oc3cc(OCC(=O)c4cccc([N+](=O)[O-])c4)ccc23)cc1 read z-score 3.022.
Cc1ccc(-c2nc3ccccc3[nH]2)cc1NC(=O)c1sc2cc(Cl)ccc2c1Cl read z-score -0.2763.
Cc1ccc(O)c(C(=O)c2cnn(C(=O)Cc3csc(C)n3)c2)c1 read z-score -0.4292.
CCN(CCO)c1nc(SC)nc2c1sc1nc(-c3ccco3)c3c(c12)CCC3 read z-score 2.113.
O=C1NC(=S)S/C1=C\C=C\c1ccc([N+](=O)[O-])o1 read z-score -0.1185.
COc1ccc(C(=O)Nc2ccccc2C(=O)NC(Cc2ccc(O)cc2)C(=O)NNC(=O)c2ccccc2Cl)cc1 (stereo not drawn) read z-score 0.398.
O=S(=O)(O)c1cccc(N=Nc2c(O)ccc3ccccc23)c1 read z-score -1.299.
CCc1cc(=O)oc2cc3occ(-c4ccc(OC)c(F)c4)c3cc12 read z-score 2.492.
CCCS/C(N)=N/N=C/c1cc(C)ccc1O read z-score 1.72.
COc1ccc(N2C3=C(C(=O)CC(C)(C)C3)C(c3ccccc3OC)C3=C2CC(C)(C)CC3=O)cc1 read z-score 24.32.
O=C(COc1ccc(/C=N/NC(=O)c2cc3ccccc3o2)cc1Cl)Nc1ccccc1 read z-score 0.514.
O=C(Nc1cnn(Cc2ccc(F)cc2)c1)c1cnn2c(C(F)F)cc(-c3ccccc3)nc12 read z-score 0.1312.
O=c1[nH]c(O)c(/C=C2\C=Nc3ccccc32)[nH]1 read z-score -1.507.
O=C(O)C1CSC(c2coc3ccccc3c2=O)N1 (stereo not drawn) read z-score 0.301.
Cc1cccn2c(=O)c3cc(C(=O)O)n(C)c3nc12 read z-score 49.97.
COc1cc(C=C2C(=O)c3ccccc3C2=O)ccc1O read z-score -1.073.
Cc1ccccc1C(=O)Nc1nc2c(C)csc2c(=O)s1 read z-score -1.02.
Cc1ccc(-n2c(O)c(C=Nc3ccccc3-c3n[nH]c(=S)[nH]c3=O)c3ccccc3c2=O)cc1C read z-score 1.221.
O=C(Nc1c[nH]c(=O)[nH]c1=O)c1ccc2c(c1)C(=O)N(c1cccc([N+](=O)[O-])c1)C2=O read z-score -1.658.
Cc1ccc(C(=O)Nc2cccc(C(F)(F)F)c2)cc1NC(=O)c1ccno1 read z-score -1.071.
Cc1ccc(NNc2c(C)nc3ccccc3nc2=O)cc1 read z-score -1.609.
O=C(NC(=O)c1ccc(Cl)cc1)Nc1ccc(-c2cnco2)cc1 read z-score -1.158.
CC[C@H](C)NC(=O)CCCCCn1c(=S)[nH]c2c([nH]c3ccc(OC)cc32)c1=O read z-score -1.669.
O=C(O)c1cc(-c2ccco2)nn1-c1cccc(Cl)c1 read z-score -1.439.
O=C(Oc1ccc2ccc(=O)oc2c1)C1CCCCC1 read z-score 20.96.
Cc1ccc(/C=C2\SC(=S)N(/N=C/c3cc([N+](=O)[O-])ccc3O)C2=O)o1 read z-score -1.934.
CCSc1nnc(NC(=O)c2ccco2)s1 read z-score 0.02748.
COc1ccccc1NC(=O)Cn1c(O)c(N=NC(=O)c2ccccc2O)c2ccccc21 read z-score -1.54.
O=C(Nc1cnn(C23CC4CC(CC(C4)C2)C3)c1)c1cnn2c(C(F)(F)F)cc(-c3ccco3)nc12 read z-score 2.752.
CCN1CCN(Cc2ccc(NC(=O)c3ccc(C)c(NC(=O)c4nccnc4N)c3)cc2C(F)(F)F)CC1 read z-score 0.1513.
O=C1NN(c2ccc(Cl)cc2)C(=O)/C1=C\c1ccc(-c2cccc(C(=O)O)c2)o1 read z-score -1.362.
CN1C(=O)/C(=C/C=C/c2ccco2)C(=O)NC1=S read z-score -2.067.
NC(=S)c1cn(C2OC(CO)C(O)C2O)c2ncnc(N)c12 (stereo not drawn) read z-score 0.2514.
O=C(Nc1ccc2nc(-c3ccco3)c(-c3ccco3)nc2c1)N1CCN(c2ccccn2)CC1 read z-score 2.768.
CC(=O)n1cc([C@H]2C=C(C(=O)NCc3ccccc3)O[C@@H](OCc3ccc(CO)cc3)C2)c2ccccc21 read z-score -0.01388.
COc1ccc(C2CC(c3ccccc3)=NN2c2ccc(S(N)(=O)=O)cc2)cc1OC (stereo not drawn) read z-score 25.94.
Cc1cc(NC(=O)c2ccc(S(=O)(=O)N3CCc4ccccc43)cc2)no1 read z-score 0.004528.
CCOC(=O)c1cc2c(=O)n3cccc(C)c3nc2n(CC(C)C)c1=NC(=O)c1ccco1 read z-score 12.68.
O=C1N/C(=N\N=C\c2ccc3ncccc3c2)SC1Cc1ccc(SC(F)F)cc1 (stereo not drawn) read z-score 0.7879.
O=C(CSc1nnc(-c2ccco2)c(-c2ccco2)n1)c1ccccc1 read z-score -0.7376.
C=CCOC(=O)C1=C(C)NC(SCC(=O)NC(=O)OCC)=C(C#N)C1c1cccnc1 (stereo not drawn) read z-score 35.88.
NS(=O)(=O)c1ccc(CNS(=O)(=O)c2cc(C(=O)O)ccc2Cl)cc1 read z-score -0.9492.
COc1ccc(-n2cccc2/C=C2\C(=N)N3N=C(c4ccco4)SC3=NC2=O)cc1 read z-score -0.3764.
CC1=NOC(=O)/C1=C\c1ccc(-c2ccc(Br)cc2)o1 read z-score -1.335.

Once more, the final 5:

compound	z-score
O=C(CSc1nnc(-c2ccco2)c(-c2ccco2)n1)c1ccccc1	-0.7376
C=CCOC(=O)C1=C(C)NC(SCC(=O)NC(=O)OCC)=C(C#N)C1c1cccnc1 (stereo not drawn)	35.88
NS(=O)(=O)c1ccc(CNS(=O)(=O)c2cc(C(=O)O)ccc2Cl)cc1	-0.9492
COc1ccc(-n2cccc2/C=C2\C(=N)N3N=C(c4ccco4)SC3=NC2=O)cc1	-0.3764
CC1=NOC(=O)/C1=C\c1ccc(-c2ccc(Br)cc2)o1	-1.335

The results are deposited in PubChem (AID463188; University of Pittsburgh Molecular Library Screening Center, 2010).